Results are given in words; binding and its absence hold for the method and conditions named. Binding can be weak; no strength is given. Tags and fused reporters may be left off the sequences shown. Each block holds one molecule with its values, some of them ahead of it.
Legend:
[1] = biological target: T1, BD-OsWRKY76 (rice (Oryza sativa)) (UniProt Q6EPZ2); assay: two-hybrid; yeast strain Y2HGold; bait in pbridge (BD), prey in pGADT7 (AD); growth on SD/-Trp-Leu and SD/-Trp-Leu-His dropout plates
T1 sequence: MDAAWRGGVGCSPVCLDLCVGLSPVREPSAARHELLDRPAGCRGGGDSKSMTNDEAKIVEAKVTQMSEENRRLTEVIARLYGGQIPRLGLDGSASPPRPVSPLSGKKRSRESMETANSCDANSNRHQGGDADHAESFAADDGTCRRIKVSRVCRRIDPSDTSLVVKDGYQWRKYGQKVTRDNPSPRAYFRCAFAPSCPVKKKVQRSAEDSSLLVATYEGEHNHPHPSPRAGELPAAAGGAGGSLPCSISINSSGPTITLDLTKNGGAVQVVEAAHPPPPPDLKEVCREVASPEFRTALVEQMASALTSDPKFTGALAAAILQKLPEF

[2] = biological target: BD-OsbHLH148 (rice (Oryza sativa)); assay: two-hybrid; yeast three-hybrid assay, strain Y190; prey AD-JAZ12, bait BD-b148 or BD-b148-W76 (OsWRKY76 from the Met25 promoter, expressed without methionine); SD/-Trp-Leu-Met plates; beta-galactosidase activity

binding [1]: binds
Molecule: AD-OsJAZ11 (rice (Oryza sativa))

binding [2]: binds
B1: OsWRKY76 driven by the Met25 promoter (third protein of BD-OsbHLH148-OsWRKY76) (protein, UniProt Q6EPZ2 1-327)
chain: T1 sequence

binding [2]: binds
B2: AD-OsJAZ12 (protein, UniProt Q7XEZ1 1-171)
chain: MAAAGSSSRFAVTCGLLSQYMRERQQPQPPVTVLEAVAEEEEEEDARTMQLFPPRAAAADGVATPSAGTAPLTIFYDGRMVVVDDVPVEKAAELMRLAGSACSPPQPAHAAALPEMPIARKASLQRFLQKRKHRITTTSEPYKKAAVASPAPEKSFAVAPVKDEPATWLGL
